Experimental data taken from US20220235132A1.
These are yes or no findings as the source states them, for the method shown. Some entries that bind do so weakly or less than the wild type.

Protein sequences, listed by entry. Tags and fused reporters are not part of them. Residues count along the entry.
UniProt Q15116, residues 25-167: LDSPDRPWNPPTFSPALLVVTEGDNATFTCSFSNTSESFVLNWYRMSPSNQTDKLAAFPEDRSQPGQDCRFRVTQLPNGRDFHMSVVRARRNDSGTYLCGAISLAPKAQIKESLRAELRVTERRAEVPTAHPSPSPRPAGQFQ

Target: recombinant human PD-1 monomer (human) (UniProt Q15116)
Assay: hydrogen-deuterium exchange with recombinant human PD-1 monomer

binding: binds
B1: APE12537 (3.7C6 anti-PD-1 antibody, CHO-S sorted stable pool) (antibody, human IgG1, kappa, V domains shown)
VH: QVQLVQSGSELKKPGASVKVSCKASNYTFTDYSMHWVRQAPGQGLEWMGWINIETYYPTYADQFKGRFAFSLDTSVSTAYLQISSLKAEDTAVYYCARDYYGRFYYAMDYWGQGTTVTVSS
VL: EIVLTQSPATLSLSPGERATLSCTASSSVSSSYFHWYQQKPGQAPRLLIYSTSNLASGIPARFSGSGSGTDFTLTISRLEPEDFAVYYCHQYHRSPLTFGGGTKVEIKR
